Source: PMC9101188, “Human α-Defensin-6 Neutralizes Clostridioides difficile Toxins TcdA and TcdB by Direct Binding” (International Journal of Molecular Sciences, 2022)
No constants are given. Whether binding was seen depends on the method and setting. Some binding calls cover weakened binding; strength is not graded here.

Amino acid sequences for entries named in this document (tags omitted).
UniProt P18177: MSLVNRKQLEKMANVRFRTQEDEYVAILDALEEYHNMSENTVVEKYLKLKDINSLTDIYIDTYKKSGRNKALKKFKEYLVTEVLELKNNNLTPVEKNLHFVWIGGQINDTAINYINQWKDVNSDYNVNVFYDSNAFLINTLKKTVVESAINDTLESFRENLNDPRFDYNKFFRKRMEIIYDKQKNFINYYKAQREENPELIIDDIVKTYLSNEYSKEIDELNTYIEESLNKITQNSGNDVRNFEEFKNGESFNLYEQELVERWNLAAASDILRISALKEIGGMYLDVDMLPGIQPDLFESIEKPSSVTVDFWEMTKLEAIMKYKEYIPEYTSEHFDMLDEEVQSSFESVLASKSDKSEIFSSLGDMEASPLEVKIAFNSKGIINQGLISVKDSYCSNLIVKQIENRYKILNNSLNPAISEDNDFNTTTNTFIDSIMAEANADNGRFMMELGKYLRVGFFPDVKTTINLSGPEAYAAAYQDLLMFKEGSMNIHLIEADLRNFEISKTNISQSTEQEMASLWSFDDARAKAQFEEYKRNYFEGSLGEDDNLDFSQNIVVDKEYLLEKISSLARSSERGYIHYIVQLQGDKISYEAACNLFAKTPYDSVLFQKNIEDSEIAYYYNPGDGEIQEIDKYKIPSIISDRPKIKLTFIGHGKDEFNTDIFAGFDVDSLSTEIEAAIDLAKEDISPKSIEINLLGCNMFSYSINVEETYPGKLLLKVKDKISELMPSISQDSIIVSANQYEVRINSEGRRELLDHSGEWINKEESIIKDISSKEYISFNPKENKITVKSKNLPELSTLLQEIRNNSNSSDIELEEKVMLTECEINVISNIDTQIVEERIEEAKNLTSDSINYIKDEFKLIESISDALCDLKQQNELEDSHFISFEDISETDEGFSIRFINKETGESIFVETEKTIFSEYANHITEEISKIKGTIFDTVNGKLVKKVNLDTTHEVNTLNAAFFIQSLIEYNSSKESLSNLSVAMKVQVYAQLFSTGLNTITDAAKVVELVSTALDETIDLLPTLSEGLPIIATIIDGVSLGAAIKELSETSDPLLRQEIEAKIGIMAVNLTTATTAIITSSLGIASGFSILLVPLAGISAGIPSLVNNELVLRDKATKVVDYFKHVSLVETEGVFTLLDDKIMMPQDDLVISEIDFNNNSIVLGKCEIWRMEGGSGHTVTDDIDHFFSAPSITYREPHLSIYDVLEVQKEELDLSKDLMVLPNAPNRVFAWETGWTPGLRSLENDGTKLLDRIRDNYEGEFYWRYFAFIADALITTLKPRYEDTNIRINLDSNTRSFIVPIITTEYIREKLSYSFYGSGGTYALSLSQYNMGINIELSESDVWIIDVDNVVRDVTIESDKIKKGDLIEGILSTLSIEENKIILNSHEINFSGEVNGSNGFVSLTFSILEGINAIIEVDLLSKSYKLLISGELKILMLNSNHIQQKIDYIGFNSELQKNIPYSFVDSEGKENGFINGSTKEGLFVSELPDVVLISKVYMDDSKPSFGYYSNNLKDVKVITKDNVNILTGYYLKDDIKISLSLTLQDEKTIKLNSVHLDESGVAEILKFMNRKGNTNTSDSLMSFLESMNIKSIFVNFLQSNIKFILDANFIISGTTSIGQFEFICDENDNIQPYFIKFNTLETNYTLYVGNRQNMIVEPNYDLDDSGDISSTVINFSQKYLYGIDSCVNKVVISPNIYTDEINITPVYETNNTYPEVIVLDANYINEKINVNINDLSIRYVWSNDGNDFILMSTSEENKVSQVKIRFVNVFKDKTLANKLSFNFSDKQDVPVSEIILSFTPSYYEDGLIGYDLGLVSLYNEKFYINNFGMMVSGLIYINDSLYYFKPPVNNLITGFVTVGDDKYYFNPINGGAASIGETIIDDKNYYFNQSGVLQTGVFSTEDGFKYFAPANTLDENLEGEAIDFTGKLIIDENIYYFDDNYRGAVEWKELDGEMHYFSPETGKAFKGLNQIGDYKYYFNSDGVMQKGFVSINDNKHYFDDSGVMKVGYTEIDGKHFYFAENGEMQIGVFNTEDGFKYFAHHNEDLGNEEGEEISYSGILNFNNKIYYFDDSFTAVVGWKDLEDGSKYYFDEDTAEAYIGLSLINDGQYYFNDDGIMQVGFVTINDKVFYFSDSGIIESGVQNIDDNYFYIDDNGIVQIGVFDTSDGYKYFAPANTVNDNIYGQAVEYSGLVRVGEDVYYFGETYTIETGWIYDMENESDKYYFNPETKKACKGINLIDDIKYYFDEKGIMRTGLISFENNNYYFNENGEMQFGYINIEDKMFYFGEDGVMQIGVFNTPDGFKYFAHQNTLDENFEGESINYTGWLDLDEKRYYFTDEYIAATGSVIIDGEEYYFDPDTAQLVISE

Molecular target: biotinylated TcdB (Clostridioides difficile toxin B) (Clostridioides difficile VPI 10463) (UniProt P18177)
Experiment: SPR; biotinylated TcdB (2400 RU) immobilised on a streptavidin sensor chip; defensins injected 4 min, dissociation at least 30 min, 25 µL/min, 25 °C; 10 mM HEPES, 150 mM NaCl, 50 µM EDTA, 0.005% Tween 20, pH 7.0; α-def-6 0.1-6 µM, β-def-1 6 µM; both purified

**Q.** With DHYNCVSSGGQCLYSACPIFTKIQGTCYRGKAKCCK (peptide, UniProt P60022 33-68) [β-defensin-1] as the binder, how does the binding read?
**A.** binds weakly
